Publication PMC6316800

The chains behind the UniProt entries cited, without tags or fusion partners.
UniProt P03496: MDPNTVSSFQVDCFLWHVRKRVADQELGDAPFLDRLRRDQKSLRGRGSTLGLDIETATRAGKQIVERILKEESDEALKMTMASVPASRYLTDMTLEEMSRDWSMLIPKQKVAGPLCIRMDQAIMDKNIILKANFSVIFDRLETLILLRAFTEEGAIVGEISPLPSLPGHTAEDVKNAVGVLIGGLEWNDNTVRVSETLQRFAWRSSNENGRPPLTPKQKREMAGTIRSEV

B1: Probable ATP-dependent RNA helicase DDX27 (protein, UniProt Q96GQ7 1-765)
chain: MLADLGLIGTIGEDDEVPVEPESDSGDEEEEGPIVLGRRQKALGKNRSADFNPDFVFTEKEGTYDGSWALADVMSQLKKKRAATTLDEKIEKVRKKRKTEDKEAKSGKLEKEKEAKEGSEPKEQEDLQENDEEGSEDEASETDYSSADENILTKADTLKVKDRKKKKKKGQEAGGFFEDASQYDENLSFQDMNLSRPLLKAITAMGFKQPTPIQKACIPVGLLGKDICACAATGTGKTAAFALPVLERLIYKPRQAPVTRVLVLVPTRELGIQVHSVTRQLAQFCNITTCLAVGGLDVKSQEAALRAAPDILIATPGRLIDHLHNCPSFHLSSIEVLILDEADRMLDEYFEEQMKEIIRMCSHHRQTMLFSATMTDEVKDLASVSLKNPVRIFVNSNTDVAPFLRQEFIRIRPNREGDREAIVAALLTRTFTDHVMLFTQTKKQAHRMHILLGLMGLQVGELHGNLSQTQRLEALRRFKDEQIDILVATDVAARGLDIEGVKTVINFTMPNTIKHYVHRVGRTARAGRAGRSVSLVGEDERKMLKEIVKAAKAPVKARILPQDVILKFRDKIEKMEKDVYAVLQLEAEEKEMQQSEAQINTAKRLLEKGKEAVVQEPERSWFQTKEERKKEKIAKALQEFDLALRGKKKRKKFMKDAKKKGEMTAEERSQFEILKAQMFAERLAKRNRRAKRARAMPEEEPVRGPAKKQKQGKKSVFDEELTNTSKKALKQYRAGPSFEERKQLGLPHQRRGGNFKSKSRYKRRK
B2: Transformer-2 protein homolog alpha (protein, UniProt Q13595 1-282)
chain: MSDVEENNFEGRESRSQSKSPTGTPARVKSESRSGSRSPSRVSKHSESHSRSRSKSRSRSRRHSHRRYTRSRSHSHSHRRRSRSRSYTPEYRRRRSRSHSPMSNRRRHTGSRANPDPNTCLGVFGLSLYTTERDLREVFSRYGPLSGVNVVYDQRTGRSRGFAFVYFERIDDSKEAMERANGMELDGRRIRVDYSITKRAHTPTPGIYMGRPTHSGGGGGGGGGGGGGGGGRRRDSYYDRGYDRGYDRYEDYDYRYRRRSPSPYYSRYRSRSRSRSYSPRRY
B3: WD repeat-containing protein 3 (protein, UniProt Q9UNX4 1-943)
chain: MGLTKQYLRYVASAVFGVIGSQKGNIVFVTLRGEKGRYVAVPACEHVFIWDLRKGEKILILQGLKQEVTCLCPSPDGLHLAVGYEDGSIRIFSLLSGEGNVTFNGHKAAITTLKYDQLGGRLASGSKDTDIIVWDVINESGLYRLKGHKDAITQALFLREKNLLVTSGKDTMVKWWDLDTQHCFKTMVGHRTEVWGLVLLSEEKRLITGASDSELRVWDIAYLQEIEDPEEPDPKKIKGSSPGIQDTLEAEDGAFETDEAPEDRILSCRKAGSIMREGRDRVVNLAVDKTGRILACHGTDSVLELFCILSKKEIQKKMDKKMKKARKKAKLHSSKGEEEDPEVNVEMSLQDEIQRVTNIKTSAKIKSFDLIHSPHGELKAVFLLQNNLVELYSLNPSLPTPQPVRTSRITIGGHRSDVRTLSFSSDNIAVLSAAADSIKIWNRSTLQCIRTMTCEYALCSFFVPGDRQVVIGTKTGKLQLYDLASGNLLETIDAHDGALWSMSLSPDQRGFVTGGADKSVKFWDFELVKDENSTQKRLSVKQTRTLQLDEDVLCVSYSPNQKLLAVSLLDCTVKIFYVDTLKFFLSLYGHKLPVICMDISHDGALIATGSADRNVKIWGLDFGDCHKSLFAHDDSVMYLQFVPKSHLFFTAGKDHKIKQWDADKFEHIQTLEGHHQEIWCLAVSPSGDYVVSSSHDKSLRLWERTREPLILEEEREMEREAEYEESVAKEDQPAVPGETQGDSYFTGKKTIETVKAAERIMEAIELYREETAKMKEHKAICKAAGKEVPLPSNPILMAYGSISPSAYVLEIFKGIKSSELEESLLVLPFSYVPDILKLFNEFIQLGSDVELICRCLFFLLRIHFGQITSNQMLVPVIEKLRETTISKVSQVRDVIGFNMAGLDYLKRECEAKSEVMFFADATSHLEEKKRKRKKREKLILTLT
B4: U3 small nucleolar RNA-associated protein 18 homolog (protein, UniProt Q9Y5J1 1-556)
chain: MPPERRRRMKLDRRTGAKPKRKPGMRPDWKAGAGPGGPPQKPAPSSQRKPPARPSAAAAAIAVAAAEEERRLRQRNRLRLEEDKPAVERCLEELVFGDVENDEDALLRRLRGPRVQEHEDSGDSEVENEAKGNFPPQKKPVWVDEEDEDEEMVDMMNNRFRKDMMKNASESKLSKDNLKKRLKEEFQHAMGGVPAWAETTKRKTSSDDESEEDEDDLLQRTGNFISTSTSLPRGILKMKNCQHANAERPTVARISSVQFHPGAQIVMVAGLDNAVSLFQVDGKTNPKIQSIYLERFPIFKACFSANGEEVLATSTHSKVLYVYDMLAGKLIPVHQVRGLKEKIVRSFEVSPDGSFLLINGIAGYLHLLAMKTKELIGSMKINGRVAASTFSSDSKKVYASSGDGEVYVWDVNSRKCLNRFVDEGSLYGLSIATSRNGQYVACGSNCGVVNIYNQDSCLQETNPKPIKAIMNLVTGVTSLTFNPTTEILAIASEKMKEAVRLVHLPSCTVFSNFPVIKNKNISHVHTMDFSPRSGYFALGNEKGKALMYRLHHYSDF
B5: U3 small nucleolar RNA-associated protein 6 homolog (protein, UniProt Q9NYH9 1-597)
chain: MAEIIQERIEDRLPELEQLERIGLFSHAEIKAIIKKASDLEYKIQRRTLFKEDFINYVQYEINLLELIQRRRTRIGYSFKKDEIENSIVHRVQGVFQRASAKWKDDVQLWLSYVAFCKKWATKTRLSKVFSAMLAIHSNKPALWIMAAKWEMEDRLSSESARQLFLRALRFHPECPKLYKEYFRMELMHAEKLRKEKEEFEKASMDVENPDYSEEILKGELAWIIYKNSVSIIKGAEFHVSLLSIAQLFDFAKDLQKEIYDDLQALHTDDPLTWDYVARRELEIESQTEEQPTTKQAKAVEVGRKEERCCAVYEEAVKTLPTEAMWKCYITFCLERFTKKSNSGFLRGKRLERTMTVFRKAHELKLLSECQYKQLSVSLLCYNFLREALEVAVAGTELFRDSGTMWQLKLQVLIESKSPDIAMLFEEAFVHLKPQVCLPLWISWAEWSEGAKSQEDTEAVFKKALLAVIGADSVTLKNKYLDWAYRSGGYKKARAVFKSLQESRPFSVDFFRKMIQFEKEQESCNMANIREYYERALREFGSADSDLWMDYMKEELNHPLGRPENCGQIYWRAMKMLQGESAEAFVAKHAMHQTGHL
B6: ATP-dependent RNA helicase DDX24 (protein, UniProt Q9GZR7 1-859)
chain: MKLKDTKSRPKQSSCGKFQTKGIKVVGKWKEVKIDPNMFADGQMDDLVCFEELTDYQLVSPAKNPSSLFSKEAPKRKAQAVSEEEEEEEGKSSSPKKKIKLKKSKNVATEGTSTQKEFEVKDPELEAQGDDMVCDDPEAGEMTSENLVQTAPKKKKNKGKKGLEPSQSTAAKVPKKAKTWIPEVHDQKADVSAWKDLFVPRPVLRALSFLGFSAPTPIQALTLAPAIRDKLDILGAAETGSGKTLAFAIPMIHAVLQWQKRNAAPPPSNTEAPPGETRTEAGAETRSPGKAEAESDALPDDTVIESEALPSDIAAEARAKTGGTVSDQALLFGDDDAGEGPSSLIREKPVPKQNENEEENLDKEQTGNLKQELDDKSATCKAYPKRPLLGLVLTPTRELAVQVKQHIDAVARFTGIKTAILVGGMSTQKQQRMLNRRPEIVVATPGRLWELIKEKHYHLRNLRQLRCLVVDEADRMVEKGHFAELSQLLEMLNDSQYNPKRQTLVFSATLTLVHQAPARILHKKHTKKMDKTAKLDLLMQKIGMRGKPKVIDLTRNEATVETLTETKIHCETDEKDFYLYYFLMQYPGRSLVFANSISCIKRLSGLLKVLDIMPLTLHACMHQKQRLRNLEQFARLEDCVLLATDVAARGLDIPKVQHVIHYQVPRTSEIYVHRSGRTARATNEGLSLMLIGPEDVINFKKIYKTLKKDEDIPLFPVQTKYMDVVKERIRLARQIEKSEYRNFQACLHNSWIEQAAAALEIELEEDMYKGGKADQQEERRRQKQMKVLKKELRHLLSQPLFTESQKTKYPTQSGKPPLLVSAPSKSESALSCLSKQKKKKTKKPKEPQPEQPQPSTSAN
B7: WD repeat-containing protein 43 (protein, UniProt Q15061 1-677)
chain: MAAGGGGSCDPLAPAGVPCAFSPHSQAYFALASTDGHLRVWETANNRLHQEYVPSAHLSGTCTCLAWAPARLQAKESPQRKKRKSEAVGMSNQTDLLALGTAVGSILLYSTVKGELHSKLISGGHDNRVNCIQWHQDSGCLYSCSDDKHIVEWNVQTCKVKCKWKGDNSSVSSLCISPDGKMLLSAGRTIKLWVLETKEVYRHFTGHATPVSSLMFTTIRPPNESQPFDGITGLYFLSGAVHDRLLNVWQVRSENKEKSAVMSFTVTDEPVYIDLTLSENKEEPVKLAVVCRDGQVHLFEHILNGYCKKPLTSNCTIQIATPGKGKKSTPKPIPILAAGFCSDKMSLLLVYGSWFQPTIERVALNSREPHMCLVRDISNCWAPKVETAITKVRTPVMNSEAKVLVPGIPGHHAAIKPAPPQTEQVESKRKSGGNEVSIEERLGAMDIDTHKKGKEDLQTNSFPVLLTQGLESNDFEMLNKVLQTRNVNLIKKTVLRMPLHTIIPLLQELTKRLQGHPNSAVLMVQWLKCVLTVHASYLSTLPDLVPQLGTLYQLMESRVKTFQKLSHLHGKLILLITQVTASEKTKGATSPGQKAKLVYEEESSEEESDDEIADKDSEDNWDEDEEESESEKDEDVEEEDEDAEGKDEENGEDRDTASEKELNGDSDLDPENESEEE
B8: U3 small nucleolar RNA-associated protein 15 homolog (protein, UniProt Q8TED0 1-518)
chain: MAGYKPVAIQTYPILGEKITQDTLYWNNYKTPVQIKEFGAVSKVDFSPQPPYNYAVTASSRIHIYGRYSQEPIKTFSRFKDTAYCATFRQDGRLLVAGSEDGGVQLFDISGRAPLRQFEGHTKAVHTVDFTADKYHVVSGADDYTVKLWDIPNSKEILTFKEHSDYVRCGCASKLNPDLFITGSYDHTVKMFDARTSESVLSVEHGQPVESVLLFPSGGLLVSAGGRYVKVWDMLKGGQLLVSLKNHHKTVTCLCLSSSGQRLLSGSLDRKVKVYSTTSYKVVHSFDYAASILSLALAHEDETIVVGMTNGILSVKHRKSEAKKESLPRRRRPAYRTFIKGKNYMKQRDDILINRPAKKHLELYDRDLKHFRISKALDRVLDPTCTIKTPEITVSIIKELNRRGVLANALAGRDEKEISHVLNFLIRNLSQPRFAPVLINAAEIIIDIYLPVIGQSPVVDKKFLLLQGLVEKEIDYQRELLETLGMMDMLFATMRRKEGTSVLEHTSDGFPENKKIES
B9: U3 small nucleolar RNA-associated protein 14 homolog A (protein, UniProt Q9BVJ6 1-771)
chain: MTANRLAESLLALSQQEELADLPKDYLLSESEDEGDNDGERKHQKLLEAISSLDGKNRRKLAERSEASLKVSEFNVSSEGSGEKLVLADLLEPVKTSSSLATVKKQLSRVKSKKTVELPLNKEEIERIHREVAFNKTAQVLSKWDPVVLKNRQAEQLVFPLEKEEPAIAPIEHVLSGWKARTPLEQEIFNLLHKNKQPVTDPLLTPVEKASLRAMSLEEAKMRRAELQRARALQSYYEAKARREKKIKSKKYHKVVKKGKAKKALKEFEQLRKVNPAAALEELEKIEKARMMERMSLKHQNSGKWAKSKAIMAKYDLEARQAMQEQLSKNKELTQKLQVASESEEEEGGTEDVEELLVPDVVNEVQMNADGPNPWMLRSCTSDTKEAATQEDPEQLPELEAHGVSESEGEERPVAEEEILLREFEERRSLRKRSELSQDAEPAGSQETKDSGSQEVLSELRVLSQKLKENHQSRKQKASSEGTIPQVQREEPAPEEEEPLLLQRPERVQTLEELEELGKEECFQNKELPRPVLEGQQSERTPNNRPDAPKEKKKKEQMIDLQNLLTTQSPSVKSLAVPTIEELEDEEERNHRQMIKEAFAGDDVIRDFLKEKREAVEASKPKDVDLTLPGWGEWGGVGLKPSAKKRRRFLIKAPEGPPRKDKNLPNVIINEKRNIHAAAHQVRVLPYPFTHHWQFERTIQTPIGSTWNTQRAFQKLTTPKVVTKPGHIINPIKAEDVGYRSSSRSDLSVIQRNPKRITTRHKKQLKKCSVD

Target: Influenza A virus non-structural protein 1 (NS1), strain A/Puerto Rico/8/1934(H1N1) (Influenza A virus A/Puerto Rico/8/1934(H1N1)) (UniProt P03496)
Experiment: affinity purification with mass spectrometry

| Binder | binding |
| --- | --- |
| B1 | binds |
| B2 | binds |
| B3 | binds |
| B4 | binds |
| B5 | binds |
| B6 | binds |
| B7 | binds |
| B8 | binds |
| B9 | binds |

These are yes or no findings as the source states them, for the method shown. Binding seen in cells or lysates may run through a third protein. Here binding means that the protein was enriched with, or labelled near, the bait; the list need not be complete.
